{"source": "paper PMC6560169", "key": {"[1]": {"target": "Tla3D1 (first DUF2875 domain of Tla3/PA0259), two-hybrid fusion (Pseudomonas aeruginosa)", "test": "two-hybrid; bacterial adenylate cyclase two-hybrid (BACTH): fusions to T18 and T25 of the Bordetella adenylate cyclase in E. coli BTH101, spotted on X-gal/IPTG plates, 30°C"}, "[2]": {"target": "Tla3D2 (second DUF2875 domain of Tla3/PA0259), two-hybrid fusion (Pseudomonas aeruginosa)", "test": "two-hybrid; bacterial adenylate cyclase two-hybrid (BACTH): fusions to T18 and T25 of the Bordetella adenylate cyclase in E. coli BTH101, spotted on X-gal/IPTG plates, 30°C"}}, "note": "Results are given in words; binding and its absence hold for the method and conditions named. Sequences can lack the tags named with a protein.", "data": [{"binder": "Tle3 fused downstream of the T18 or T25 domain (T18/T25-Tle3) (protein, UniProt Q9I6M9 1-716) MNDRVRSRTIVSAQSITLPKGGDVHLVPPPPKPCVTIVVHGVNDLAGCYERIERGLCQGLNERLDMPPTLPGGQANPGYLTPAGYSLPADDEGKAENPDVVYYRRKFASGAGGAAVRSVVVPFYWGFREEEQYINKTAAHGEWLDRNGNRLDKSGTKEGGQFVNATTNLPDMWGQGFNGKLFGFISLDWFGGTMTHPLFSAAGRKYMVLAAMRLAMLIKIIRKRYPDDTINVVGHSQGTLLTLLAHAFLKDDGVAPADGVIMLNSPYGLFEPLNEKLQGWSSQQTREARLATLKGILEFICGRRHPVPALSSVALRNCQGYGAIGGPGWVGGQGCQTTIDGERLSFDERDNRGSVYLYFTPQDQTVGLANVQGIGWRGIAEQVKGLPGRTGLPQGFHQRIFTVRKRNGEKEKIGGHAPPHVYPLLLAGEKTWEDTGLGGKDRFGRANFDQGDSVLLTAPRLPLPTEARFDFDGAVTAPGENSASGVYQVRDTLDPIDAAIGVSNGGWKEKDSGHAVAQQVDAALAYRYGRDARSVERALNEGKELAQQTHVFSARELGTGMVLVTRAETPYEARLRLQTAEGHLEPLSFHSAIPNNPEHNRRVLAYDLAIGAGDSVDDVVFYQYLCRVADWRLDWKASDKGIFSQGDASVDLPDEEVRALYRAEESKNSQLIDATVAYRKSGEFPVVVGNRLPSLVGTQTILDRYHEQAVRFGGTI", "values": [{"measurement": "binding", "setting": "[1]", "result": "no binding"}, {"measurement": "binding", "setting": "[2]", "result": "no binding"}]}]}
